# Values of other authors in publication PMC4190524, “The Flux of Select NSAIDs through Silicone Membranes from Mineral Oil” (Pharmaceutics, 2014).
# Set-up: method as in Wenkers and Lippold 1999 [6]
# Settings: log maximum flux through human skin in vivo from mineral oil; ref Wenkers and Lippold 1999 [6]; cited from earlier work
smiles,measurement,value
COc1ccc2cc([C@H](C)C(=O)O)ccc2c1 [Naproxen],log JMHMO,−2.00 µmol cm^−2 h^−1
